Measurements published in PubChem BioAssay AID328 (DTP/NCI, 2004).
The list is a part of this screen's results and no random one: it gathers tests that were run many times, whatever their T/C, doses with no T/C, and many T/C values between a quarter and a half above the control. Further doses and runs are listed elsewhere. T/C is the treated group as % of the vehicle group. Some doses have a count of surviving animals in place of a T/C: the source holds a T/C of zero for them, seemingly a mark for toxic or unscored doses. Some survivor counts are full or nearly so, which does not show that the dose was tolerated: survival well below the control is almost never listed, so the zero probably covers shortened survival too. Counts of survivors are from the toxicity check (mostly the fifth day) where no day follows; animals may have died later. Schedules are NCI's codes, read here as Q, the interval in days (D) or hours (H), X, the number of doses. Some entries were tested several times; the values are given in rising order. Where survival is the endpoint, the PubChem record calls one and a half times the control and up active, and a quarter to a half above the control has no call in these data; cut-offs in other NCI protocols can differ. Some T/C values are followed by the survivors on the day toxicity was checked, most often the fifth; where none is given, no animal had died by that day.

System: BDF1 mice, P388 leukemia ip, median survival T/C
Assay: NCI In Vivo Anticancer Drug Screen. Data for tumor model P388 Leukemia (intraperitoneal) in B6D2F1 (BDF1) mice
Details: T/C endpoint: median survival time, higher T/C = longer survival
In short: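 Steps: implant the tumour, treat one group with compound and another with vehicle, record survival, then divide treated by control.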

[1] = dose: 400.0 mg/kg/injection, schedule: Q04DX003 (ip), vehicle: Klucel (hydroxypropylcellulose) (HPC)
[2] = dose: 50.0 mg/kg/injection, schedule: Q01DX009 (ip), vehicle: saline
[3] = dose: 15.0 mg/kg/injection, schedule: Q01DX009 (ip), vehicle: saline with Tween-80

## CC1(C)N=C(N)N=C(N)N1c1ccc(CCCCc2cccc(S(=O)(=O)F)c2)c(Cl)c1
dose: 0.29 mg/kg/injection, schedule: Q01DX009 (ip), vehicle: saline with Tween-80
  T/C: 127 % of control
dose: 0.44 mg/kg/injection, schedule: Q01DX009 (ip), vehicle: saline with Tween-80
  T/C: 140 % of control
dose: 0.66 mg/kg/injection, schedule: Q01DX009 (ip), vehicle: saline with Tween-80
  survivor count: 6 of 6
dose: 0.88 mg/kg/injection, schedule: Q01DX009 (ip), vehicle: saline with Tween-80
  T/C: 136 % of control
dose: 1.0 mg/kg/injection, schedule: Q01DX009 (ip), vehicle: saline with Tween-80
  survivor count: 6 of 6
dose: 2.0 mg/kg/injection, schedule: Q01DX009 (ip), vehicle: saline with Tween-80
  T/C: 126 % of control
dose: 8.0 mg/kg/injection, schedule: Q01DX009 (ip), vehicle: saline with Tween-80
  T/C: 137 % of control
dose: 12.0 mg/kg/injection, schedule: Q01DX009 (ip), vehicle: saline with Tween-80
  T/C: 144 % of control
dose: 18.0 mg/kg/injection, schedule: Q01DX009 (ip), vehicle: saline with Tween-80
  T/C: 148 % of control
dose: 25.0 mg/kg/injection, schedule: Q04DX003 (ip), vehicle: saline with Tween-80
  T/C: 127 % of control
dose: 50.0 mg/kg/injection, schedule: Q04DX003 (ip), vehicle: saline with Tween-80
  survivor count: 3 of 6
dose: 100.0 mg/kg/injection, schedule: Q04DX003 (ip), vehicle: saline with Tween-80
  survivor count: 4 of 6

## CCn1c(O)c(N=NC(=S)NC)c2ccccc21
dose: 75.0 mg/kg/injection, schedule: Q01DX009 (ip), vehicle: saline with Tween-80
  survivor count: 5 of 6
dose: 150.0 mg/kg/injection, schedule: Q01DX009 (ip), vehicle: saline with Tween-80
  survivor count: 5 of 6

## NOCc1ccsn1
dose: 100.0 mg/kg/injection, schedule: Q04DX003 (ip), vehicle: other
  survivor count: 6 of 6

## CC(=O)OC1=NC(C)c2c1cc(OC(C)=O)[nH]c2=O (stereo not given)
dose: 200.0 mg/kg/injection, schedule: Q04DX003 (ip), vehicle: Klucel (hydroxypropylcellulose) (HPC)
  T/C: 126 and 133 % of control
dose: 300.0 mg/kg/injection, schedule: Q04DX003 (ip), vehicle: Klucel (hydroxypropylcellulose) (HPC)
  survivor count: 6 of 6
[1]
  survivor count: 1 of 6

## O=C1CCCCC1N1CCCCC1 (stereo not given)
dose: 200.0 mg/kg/injection, schedule: Q01DX005 (ip), vehicle: saline with Tween-80
  survivor count: 2 of 5

## O=C1C(Cl)=C(N2CCOCC2)C(=O)c2ccccc21
dose: 50.0 mg/kg/injection, schedule: Q01DX009 (ip), vehicle: Klucel (hydroxypropylcellulose) (HPC)
  survivor count: 6 of 6

## CC(C)(C#N)N=NC(C)(C)C#N
dose: 75.0 mg/kg/injection, schedule: Q01DX009 (ip), vehicle: Klucel (hydroxypropylcellulose) (HPC)
  survivor count: 0 of 6
dose: 115.0 mg/kg/injection, schedule: Q01DX009 (ip), vehicle: Klucel (hydroxypropylcellulose) (HPC)
  survivor count: 0 of 6

## CC(C)(C)C1=C[P+](c2ccccc2)(c2ccccc2)C(C(C)(C)C)=C[P+]1(c1ccccc1)c1ccccc1
[2]
  survivor count: 3 of 6

## ClCCOCCCl
dose: 200.0 mg/kg/injection, schedule: Q01DX009 (ip), vehicle: saline with Tween-80
  survivor count: 0 of 6
dose: 400.0 mg/kg/injection, schedule: Q01DX009 (ip), vehicle: saline with Tween-80
  survivor count: 0 of 6

## CCCCCCC(=O)O[C@H]1CC[C@H]2[C@@H]3CCC4=CC(=O)CC[C@]4(C)[C@H]3CC[C@]12C
dose: 100.0 mg/kg/injection, schedule: Q01DX009 (ip), vehicle: other
  T/C: 125 % of control

## CCCCNC(C)(C)C(=O)c1ccco1
dose: 400.0 mg/kg/injection, schedule: Q04DX003 (ip), vehicle: saline with Tween-80
  survivor count: 1 of 6

## COc1cc(C=NC(CO)C(=O)O)ccc1O.COc1cc(C=NC(CO)C(=O)O)ccc1O.[Fe] (stereo not given)
dose: 400.0 mg/kg/injection, schedule: Q01DX009 (ip), vehicle: saline
  survivor count: 6 of 6

## COC1C(O)C(OC2CCC3(C)C(CCC4C3CCC3(C)C(C5=CC(=O)OC5)CCC43O)C2)OC(C)C1OC(C)=O (stereo not given)
dose: 14.0 mg/kg/injection, schedule: Q01DX009 (ip), vehicle: saline with Tween-80
  T/C: 130 % of control

## CC(C)(C)[O][Pb]([c]1ccccc1)([c]1ccccc1)[c]1ccccc1
dose: 0.78 mg/kg/injection, schedule: Q01DX009 (ip), vehicle: saline
  T/C: 127 % of control
dose: 5.3 mg/kg/injection, schedule: Q01DX009 (ip), vehicle: saline
  survivor count: 2 of 6
dose: 7.9 mg/kg/injection, schedule: Q01DX009 (ip), vehicle: saline
  survivor count: 1 of 6
dose: 11.0 mg/kg/injection, schedule: Q04DX003 (ip), vehicle: saline
  survivor count: 3 of 6
dose: 11.5 mg/kg/injection, schedule: Q01DX001 (ip), vehicle: Klucel (hydroxypropylcellulose) (HPC)
  survivor count: 0 of 6
dose: 23.0 mg/kg/injection, schedule: Q01DX001 (ip), vehicle: Klucel (hydroxypropylcellulose) (HPC)
  survivor count: 1 of 6

## Cc1ccc(/C=C2\CC(C)(C)c3ccccc3C2=O)cc1
dose: 200.0 mg/kg/injection, schedule: Q01DX009 (ip), vehicle: Klucel (hydroxypropylcellulose) (HPC)
  survivor count: 6 of 6

## CC1OC(OC2CCCc3ccccc32)CC(N)C1O (stereo not given)
dose: 16.0 mg/kg/injection, schedule: Q01DX009 (ip), vehicle: water
  T/C: 126 % of control

## O=Cc1cn[nH]c1-c1ccccc1
dose: 400.0 mg/kg/injection, schedule: Q01DX009 (ip), vehicle: Klucel (hydroxypropylcellulose) (HPC)
  survivor count: 6 of 6
[1]
  survivor count: 6 of 6

## CN(C)CCSC1=CC(=O)c2ccccc2C1=O
dose: 3.12 mg/kg/injection, schedule: Q01DX009 (ip), vehicle: water
  survivor count: 3 of 6
dose: 6.25 mg/kg/injection, schedule: Q01DX009 (ip), vehicle: water
  survivor count: 0 of 6
dose: 6.25 mg/kg/injection, schedule: Q04DX003 (ip), vehicle: water
  survivor count: 4 of 6

## CC1CCCN2C(=O)CN(N3CCOCC3)CC(=O)N12 (stereo not given)
dose: 200.0 mg/kg/injection, schedule: Q04DX002 (ip), vehicle: saline with Tween-80
  survivor count: 4 of 5
dose: 400.0 mg/kg/injection, schedule: Q04DX002 (ip), vehicle: saline with Tween-80
  survivor count: 0 of 5

## O=C1CCC(C(=O)N/N=C\C=N/NC(=O)C2CCC(=O)N2)N1 (stereo not given)
dose: 40.0 mg/kg/injection, schedule: Q01DX009 (ip), vehicle: saline with Tween-80
  survivor count: 5 of 7
dose: 80.0 mg/kg/injection, schedule: Q01DX009 (ip), vehicle: saline with Tween-80
  survivor count: 7 of 7

## O=C(Nc1ccc(C2=NCCCN2)cc1)c1ccc(C(=O)Nc2ccc(C3=NCCCN3)cc2)nc1
dose: 8.0 mg/kg/injection, schedule: Q01DX009 (ip), vehicle: saline
  T/C: 146 % of control
dose: 10.0 mg/kg/injection, schedule: Q01DX009 (ip), vehicle: saline with Tween-80
  T/C: 137 % of control [5 of 6 alive]
dose: 12.5 mg/kg/injection, schedule: Q01DX009 (ip), vehicle: saline
  T/C: 134 % of control
[3]
  T/C: 136 % of control [5 of 6 alive]
  survivor count: 2 of 6
dose: 25.0 mg/kg/injection, schedule: Q04DX003 (ip), vehicle: saline
  T/C: 126 and 131 % of control [5 of 6 alive]
dose: 37.5 mg/kg/injection, schedule: Q04DX003 (ip), vehicle: saline
  survivor count: 4 of 6
[2]
  survivor count: 1 of 6
dose: 50.0 mg/kg/injection, schedule: Q04DX003 (ip), vehicle: saline
  survivor count: 0 of 6
dose: 100.0 mg/kg/injection, schedule: Q04DX003 (ip), vehicle: saline
  survivor count: 0 of 6
dose: 200.0 mg/kg/injection, schedule: Q04DX003 (ip), vehicle: saline
  survivor count: 0 of 6
dose: 400.0 mg/kg/injection, schedule: Q04DX003 (ip), vehicle: saline
  survivor count: 0 of 6

## NC1C=CC(CCC(N)C(=O)O)C=C1 (stereo not given)
[2]
  T/C: 126 % of control

## CC(C)CC(NC(=O)C(O)C(N)Cc1ccccc1)C(=O)O (stereo not given)
dose: 300.0 mg/kg/injection, schedule: Q01DX009 (ip), vehicle: saline with Tween-80
  survivor count: 0 of 6 and 3 of 6
